Measurements reported in PubChem BioAssay AID504784 (Drosophila RNAi Screening Center, 2011).
The deposit covers about 17,000 reagents; shown is a random part of those with a known target gene and a result. 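Each column is one replicate's B-score; the combined score over replicates was not deposited, so single values may mislead.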 The numbers tell different reagents against one gene apart. Names joined by + are all predicted targets of the reagent. Further read-outs or replicates are left out here.

- Test: 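Fly genes whose silencing alters how much lipid cells keep in droplets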 (primary screen)
- Cells: Drosophila Kc167 embryonic cells
- Reagents: long dsRNA against Drosophila genes, about 250 ng dsRNA per well
- Duration: 4 days
- Challenge: cells fed 400 µM oleic acid bound to BSA
- Detection: 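Microscope images give a droplet-to-nucleus area ratio, taken as log and converted to a screen-wide B-score; higher values mean greater lipid storage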
- Reading the numbers: droplet/nuclear area B-score: higher = more stored lipid (overstorage)

target | reagent | droplet/nuclear area B-score, replicate 1 | droplet/nuclear area B-score, replicate 2
icln | 1 | -0.438 | -0.143
MsR1 | 1 | 0.661 | -0.172
Tim17b2 | 1 | -0.711 | 0.433
usp | 1 | 0.588 | -0.638
naz | 1 | -0.0501 | 2.26
naz | 2 | 0.00602 | 4.11
CG3257 | 1 | -1.04 | -0.726
CG11122 | 1 | -0.579 | -1.45
NimC1 | 1 | -1.04 | -0.0502
Lapsyn | 1 | 1.88 | 1.5
Zasp66 | 1 | -0.478 | -1.69
Zasp66 | 2 | -0.953 | 0.852
Zasp66 | 3 | -0.0537 | 0.783
APC4 | 1 | 0.606 | 1.15
Cyp6a21 | 1 | 2.68 | 0.0436
RpL19 | 1 | 5.23 | 2.78
GATAd | 1 | 0.41 | 0.221
CG3534 | 1 | 1.43 | -0.0635
Pka-C3 | 1 | 0.684 | -0.481
Pka-C3 | 2 | -2.03 | -4.44
Skeletor (retired record) | 1 | 0.217 | -1.15
Skeletor (retired record) | 2 | -0.167 | –
CG15249 | 1 | -0.226 | -1.2
emc | 1 | -0.157 | 0.449
emc | 2 | 2.48 | 1.46
CG3349 | 1 | -1.01 | 0.87
CG12849 | 1 | 0.236 | 0.0453
Buffy | 1 | 1.26 | 0.976
CG18258 | 1 | -1.57 | -2.28
CG43394 | 1 | -0.916 | 0.000676
Tom20 | 1 | 1.44 | 0.123
GlnRS | 1 | 1.26 | –
VAChT | 1 | 2.11 | 0.249
VAChT | 2 | -0.539 | 3.46
tum | 1 | 1.44 | 0.382
CG14219 | 1 | 0.423 | -0.57
CG15449 | 1 | 0.158 | 0.494
Fdh | 1 | 0.0532 | 0.282
mlt | 1 | 0.0151 | 0.0696
PolrMT | 1 | 2.81 | 4.92
CG15539 | 1 | 0.553 | 0.32
spn-F | 1 | 0.877 | –
CG8097 | 1 | 2.03 | -0.666
TwdlH | 1 | 0.0783 | 0.509
Psf3 | 1 | -0.565 | -2.28
Psf3 | 2 | 0.0956 | -2.76
CG13898 | 1 | -0.816 | -1.5
Ip259 | 1 | -3.11 | -0.272
CG14052 | 1 | 3.07 | -0.225
CG14052 | 2 | 0.842 | 0.0158
l(1)G0469 | 1 | -0.57 | 0.0858
l(1)G0469 | 2 | -0.853 | -0.00715
Manf | 1 | 1.52 | -4.36
Cyp318a1 | 1 | -1.09 | -1.22
CG5011 | 1 | -0.356 | 0.498
CG5011 | 2 | 0.179 | -2.52
CG14932 | 1 | 0.118 | 1.94
fzr | 1 | 0.332 | 0.262
Bka | 1 | 0.469 | 0.103
sni | 1 | -0.108 | 0.211
Myo31DF | 1 | -3.45 | 0.606
Myo31DF | 2 | 0.035 | 0.643
TrissinR | 1 | 1.09 | -2.53
TrissinR | 2 | 0.183 | -2.23
TrissinR | 3 | -1.13 | 0.491
Usp47 | 1 | 1.28 | -1.72
CG17327 | 1 | 2.54 | 1.6
CG42568 + DnaJ-60 | 1 | 3.28 | 3.85
CG42568 + DnaJ-60 | 2 | -0.789 | 0.669
mEFTu2 | 1 | 0.503 | -0.00793
CG31560 | 1 | -0.818 | -0.736
pwn | 1 | 0.337 | 0.659
loaf | 1 | -1.97 | -1.17
CG13010 | 1 | -0.843 | 1.16
obst-E | 1 | -0.135 | -0.172
Vti1b | 1 | 0.33 | -0.553
Vti1b | 2 | -0.448 | -0.342
CG8916 | 1 | 0.867 | -1.02
AP-1mu | 1 | -0.132 | 6.57
Pde6 | 1 | 0.614 | -3.89
Pde6 | 2 | 0.839 | 1.18
Pde6 | 3 | 0.493 | -0.234
frma | 1 | -2.19 | -1.03

Records listed so far whose target name starts with S or s:
target | reagent | droplet/nuclear area B-score, replicate 1 | droplet/nuclear area B-score, replicate 2
Skeletor (retired record) | 1 | 0.217 | -1.15
Skeletor (retired record) | 2 | -0.167 | –
spn-F | 1 | 0.877 | –
sni | 1 | -0.108 | 0.211
